In PMC6739877:
Results are given in words; binding and its absence hold for the method and conditions named. In cells and extracts the contact can be indirect. A yes stands for co-enrichment or nearness to the bait. Other partners may have been found. Tags and fused reporters may be left off the sequences shown.

Chains of the proteins cited; added tags and fusions are not shown.
UniProt Q9QY76: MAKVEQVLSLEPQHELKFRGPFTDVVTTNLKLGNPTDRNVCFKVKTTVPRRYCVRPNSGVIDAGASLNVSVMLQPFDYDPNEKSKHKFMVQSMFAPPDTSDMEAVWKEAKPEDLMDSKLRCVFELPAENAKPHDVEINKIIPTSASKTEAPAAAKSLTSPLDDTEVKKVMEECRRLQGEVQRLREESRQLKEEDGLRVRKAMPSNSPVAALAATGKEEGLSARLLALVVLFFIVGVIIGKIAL

Molecular target: T1, MNV NS4-FLAG (murine norovirus) (UniProt Q80J95)
T1 sequence: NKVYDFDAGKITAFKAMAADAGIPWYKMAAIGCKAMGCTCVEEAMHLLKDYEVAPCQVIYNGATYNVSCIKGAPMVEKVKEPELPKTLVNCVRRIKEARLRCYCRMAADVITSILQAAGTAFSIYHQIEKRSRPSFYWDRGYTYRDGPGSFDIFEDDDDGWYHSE
Assay: affinity purification with mass spectrometry; anti-FLAG purification from SILAC-labelled BV2 cells infected with NS1/2-FLAG or NS4-FLAG MNV against WT MNV; Benzonase in the lysis buffer; quantitative mass spectrometry, three repeats

Substance: VapB (from UniProt Q9QY76 1-243)
- binding: binds

Substance: MNV VF1 protein product of ORF4 (murine norovirus)
- binding: binds
